Reference: publication PMC5630020 (Genes & Development, 2017)
These are yes or no findings as the source states them, for the method shown.

Target: E. coli SspA(G97I) (E. coli) (UniProt P0ACA3)
Assay: SEC; both purified

B1: E. coli SspA(G97I) (protein, UniProt P0ACA3 1-212)
chain: MAVAANKRSVMTLFSGPTDIYSHQVRIVLAEKGVSFEIEHVEKDNPPQDLIDLNPNQSVPTLVDRELTLWESRIIMEYLDERFPHPPLMPVYPVARIESRLYMHRIEKDWYTLMNTIINGSASEADAARKQLREELLAIAPVFGQKPYFLSDEFSLVDCYLAPLLWRLPQLGIEFSGPGAKELKGYMTRVFERDSFLASLTEAEREMRLGRS
  binding: no binding
